Experimental data: PubChem BioAssay AID1259308 (NCATS, 2017)
The whole screen tested about 59,000 reagents; shown is a part drawn at random. About 1,510 of all reagents (2.6%) were called active. 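Calls use total luciferase alone and ignore viability, so some active siRNAs may act by altering cell number.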 A number with no mark means an inactive call. Not all columns of the deposit are shown. No sequences are given here.

- Purpose: 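Candidate targets for better recombinant protein yield in mammalian cells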 (primary screen)
- Cell system: human HEK293 embryonic kidney cells stably expressing firefly luciferase (HEK-CMV-Luc2-Hygro)
- Knock-down reagent: single siRNA against human genes, 0.8 pmol siRNA per well
- Time to read-out: 72 h
- Detection: 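Luciferase light (ONE-Glo) measured on one replicate plate set and viability (CellTiter-Glo) on the other, scaled to a negative control siRNA, with robust z-scores and luciferase per cell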
- Direction: total luciferase, z-score and total luciferase, % of control: higher = more reporter protein produced; luciferase per cell, z-score: higher = more reporter output per viable cell
- Active means: 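An siRNA counts as active if its total luciferase robust z-score exceeds 3; genes with two or more such siRNAs out of three were retested with fresh siRNAs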
- Calls: active = raised luciferase; inactive = no rise

Gene	PubChem SID	total luciferase, z-score	total luciferase, % of control	luciferase per cell, z-score
RMI2 (RecQ mediated genome instability 2)	SID160755307	2.22	126	2.16
RMI2 (RecQ mediated genome instability 2)	SID160755308	2.43	130	2.56
RMI2 (RecQ mediated genome instability 2)	SID160755309	0.266	87.2	-0.412
SPATA17 (spermatogenesis associated 17)	SID160756705	0.183	85.5	0.194
SPATA17 (spermatogenesis associated 17)	SID160756706	0.11	84.1	1.07
SPATA17 (spermatogenesis associated 17)	SID160756707	1.44	110	1.87
KHSRP (KH-type splicing regulatory protein)	SID160720363	1.5	112	1.52
KHSRP (KH-type splicing regulatory protein)	SID160720364	-0.991	62.2	-1.76
KHSRP (KH-type splicing regulatory protein)	SID160720365	1.57	113	0.447
VWC2L (von Willebrand factor C domain containing 2 like)	SID160767406	-0.873	64.5	-0.481
VWC2L (von Willebrand factor C domain containing 2 like)	SID160767407	-0.293	76.1	-0.816
VWC2L (von Willebrand factor C domain containing 2 like)	SID160767409	1.04	103	-0.361
SLAIN2 (SLAIN family member 2)	SID160746393	1.86	119	2.23
SLAIN2 (SLAIN family member 2)	SID160746394	-1.62	49.6	-1.18
SLAIN2 (SLAIN family member 2)	SID160746395	1.57	113	1.19
WDR13 (WD repeat domain 13)	SID160747875	-2.1	40.2	-2.76
WDR13 (WD repeat domain 13)	SID160747877	-0.00171	81.9	-0.0767
WDR13 (WD repeat domain 13)	SID160747878	-0.222	77.5	-0.652
NEUROG1 (neurogenin 1)	SID160731286	-0.403	73.9	-1.14
NEUROG1 (neurogenin 1)	SID160777978	4.24 (active)	166	3.31
NEUROG1 (neurogenin 1)	SID160777979	-1.03	61.4	-1.28
ADGB (androglobin)	SID160749349	-1.31	55.8	-0.278
ADGB (androglobin)	SID160749350	-1.09	60.3	-1.08
ADGB (androglobin)	SID160749351	-0.608	69.8	-0.0905
SRP68 (signal recognition particle 68)	SID160717347	-0.736	67.3	-0.397
SRP68 (signal recognition particle 68)	SID160717348	1.22	106	-0.138
SRP68 (signal recognition particle 68)	SID160717349	-0.255	76.8	-0.147
EHD2 (EH domain containing 2)	SID160739557	2.39	130	3.04
EHD2 (EH domain containing 2)	SID160739559	2.53	132	1.85
EHD2 (EH domain containing 2)	SID160739560	0.726	96.3	0.469
NUDT10 (nudix hydrolase 10)	SID160760447	2.95	140	2.56
NUDT10 (nudix hydrolase 10)	SID160760448	0.289	87.6	0.251
NUDT10 (nudix hydrolase 10)	SID160760450	-1.2	58	-1.26
DPH1 (diphthamide biosynthesis 1)	SID160755914	1.54	113	1.1
DPH1 (diphthamide biosynthesis 1)	SID160755925	-0.227	77.4	-0.766
DPH1 (diphthamide biosynthesis 1)	SID160755937	3.35 (active)	149	1.89
NDUFV2 (NADH:ubiquinone oxidoreductase core subunit V2)	SID160777919	-0.158	78.7	0.563
NDUFV2 (NADH:ubiquinone oxidoreductase core subunit V2)	SID160777920	-0.0742	80.4	-0.0877
NDUFV2 (NADH:ubiquinone oxidoreductase core subunit V2)	SID160777921	2.08	123	2.38
RPLP0 (ribosomal protein lateral stalk subunit P0)	SID160733717	-1.68	48.6	-0.0859
RPLP0 (ribosomal protein lateral stalk subunit P0)	SID160776285	-2.45	33.1	-0.557
RPLP0 (ribosomal protein lateral stalk subunit P0)	SID160776292	-1.79	46.3	0.491
ERGIC1 (endoplasmic reticulum-golgi intermediate compartment 1)	SID160724492	1.26	107	1.6
ERGIC1 (endoplasmic reticulum-golgi intermediate compartment 1)	SID160733664	1.22	106	1.77
ERGIC1 (endoplasmic reticulum-golgi intermediate compartment 1)	SID160745847	-0.214	77.6	-0.754
TP53INP2 (tumor protein p53 inducible nuclear protein 2)	SID160733687	-0.677	68.4	-1.37
TP53INP2 (tumor protein p53 inducible nuclear protein 2)	SID160746806	2.42	130	1.71
TP53INP2 (tumor protein p53 inducible nuclear protein 2)	SID160746807	-1.57	50.6	-1.02
PFKFB2 (6-phosphofructo-2-kinase/fructose-2,6-biphosphatase 2)	SID160714159	0.189	85.6	0.126
PFKFB2 (6-phosphofructo-2-kinase/fructose-2,6-biphosphatase 2)	SID160714160	-1.11	59.8	-1.55
PFKFB2 (6-phosphofructo-2-kinase/fructose-2,6-biphosphatase 2)	SID160714161	-0.811	65.7	-1.28
NRCAM (neuronal cell adhesion molecule)	SID160731306	0.868	99.2	1.03
NRCAM (neuronal cell adhesion molecule)	SID160778235	-0.8	66	-0.683
NRCAM (neuronal cell adhesion molecule)	SID160778236	1.79	117	2.21
PDE7A (phosphodiesterase 7A)	SID160714014	0.679	95.4	0.262
PDE7A (phosphodiesterase 7A)	SID160714015	0.488	91.6	-0.0291
PDE7A (phosphodiesterase 7A)	SID160714016	0.714	96.1	0.0568

6 entries from above, arranged by “total luciferase, % of control”, descending:
Gene	PubChem SID	total luciferase, z-score	total luciferase, % of control	luciferase per cell, z-score
ERGIC1 (endoplasmic reticulum-golgi intermediate compartment 1)	SID160724492	1.26	107	1.6
ERGIC1 (endoplasmic reticulum-golgi intermediate compartment 1)	SID160733664	1.22	106	1.77
ERGIC1 (endoplasmic reticulum-golgi intermediate compartment 1)	SID160745847	-0.214	77.6	-0.754
TP53INP2 (tumor protein p53 inducible nuclear protein 2)	SID160733687	-0.677	68.4	-1.37
RPLP0 (ribosomal protein lateral stalk subunit P0)	SID160776292	-1.79	46.3	0.491
RPLP0 (ribosomal protein lateral stalk subunit P0)	SID160776285	-2.45	33.1	-0.557
